These are yes or no findings as the source states them, for the method shown. A result given as binding can be weak or reduced; the word gives no strength.

Amino acid sequences for entries named in this document (tags omitted). A change or cut given only in a name is not applied to a line headed by its entry.
UniProt P05740: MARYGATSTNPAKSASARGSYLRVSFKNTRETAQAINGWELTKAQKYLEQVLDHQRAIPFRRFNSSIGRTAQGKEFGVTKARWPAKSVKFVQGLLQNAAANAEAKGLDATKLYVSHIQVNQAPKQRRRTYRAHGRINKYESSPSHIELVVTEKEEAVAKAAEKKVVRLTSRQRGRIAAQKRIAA

In this test the target is ribosomal protein L17 (S. cerevisiae (endogenous in the yeast strain)) (UniProt P05740). Briefly: cross-linking; pre-60S particles purified via Arx1-TAP from drg1-18 (TEV eluate) incubated with 150 µg purified Drg1 and 1 mM ATPγS, cross-linked with 1.5 mM DSS or BS3 (isotopically labeled), 30 minutes, 30 °C; LC-MS/MS, xQuest/xProphet; both purified.

B1: Drg1 (diazaborine resistance gene 1), wild type, purified (enzyme, UniProt P32794 1-780)
chain: MAPKSSSSGSKKKSSASSNSADAKASKFKLPAEFITRPHPSKDHGKETCTAYIHPNVLSSLEINPGSFCTVGKIGENGILVIARAGDEEVHPVNVITLSTTIRSVGNLILGDRLELKKAQVQPPYATKVTVGSLQGYNILECMEEKVIQKLLDDSGVIMPGMIFQNLKTKAGDESIDVVITDASDDSLPDVSQLDLNMDDMYGGLDNLFYLSPPFIFRKGSTHITFSKETQANRKYNLPEPLSYAAVGGLDKEIESLKSAIEIPLHQPTLFSSFGVSPPRGILLHGPPGTGKTMLLRVVANTSNAHVLTINGPSIVSKYLGETEAALRDIFNEARKYQPSIIFIDEIDSIAPNRANDDSGEVESRVVATLLTLMDGMGAAGKVVVIAATNRPNSVDPALRRPGRFDQEVEIGIPDVDARFDILTKQFSRMSSDRHVLDSEAIKYIASKTHGYVGADLTALCRESVMKTIQRGLGTDANIDKFSLKVTLKDVESAMVDIRPSAMREIFLEMPKVYWSDIGGQEELKTKMKEMIQLPLEASETFARLGISAPKGVLLYGPPGCSKTLTAKALATESGINFLAVKGPEIFNKYVGESERAIREIFRKARSAAPSIIFFDEIDALSPDRDGSSTSAANHVLTSLLNEIDGVEELKGVVIVAATNRPDEIDAALLRPGRLDRHIYVGPPDVNARLEILKKCTKKFNTEESGVDLHELADRTEGYSGAEVVLLCQEAGLAAIMEDLDVAKVELRHFEKAFKGIARGITPEMLSYYEEFALRSGSSS
Turning to B1, the binding result is on record as “binds”.

Source of the values: publication PMC9507969.
